Laboratory results as given in the supplement of paper PMC4604168 (melanoma cell lines).
This is one part of the list. Single values are uncertain, as repeats are few or missing.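 The apoptosis fraction was the count of cleaved-PARP antibody-stained nuclei relative to all DNA-stained nuclei, imaged in 1,536-well plates. Screening doses were set so most cells survived, and baseline and induced cleaved-PARP levels vary greatly across cell lines.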

Columns and labels:
Assay in all cases: cleaved PARP positive nuclei fraction relative to DMSO control; melanoma cells; higher = more apoptosis
Settings in all cases: library dose: low library concentration; 72 h
MZ2-MEL = system: MZ2-MEL
MeWo = system: MeWo
RPMI7951 = system: RPMI7951
RVH-421 = system: RVH-421
SkMel28 = system: SkMel28
SkMel2 = system: SkMel2
SkMel30 = system: SkMel30
SkMel5 = system: SkMel5
UACC257 = system: UACC257
UACC62 = system: UACC62
WM115 = system: WM115
WM1716 = system: WM1716
WM1745 = system: WM1745
WM3526 = system: WM3526
WM3619 = system: WM3619
WM451Lu = system: WM451Lu

Row | Compound | cleaved PARP positive nuclei fraction (MZ2-MEL) | cleaved PARP positive nuclei fraction (MeWo) | cleaved PARP positive nuclei fraction (RPMI7951) | cleaved PARP positive nuclei fraction (RVH-421) | cleaved PARP positive nuclei fraction (SkMel28) | cleaved PARP positive nuclei fraction (SkMel2) | cleaved PARP positive nuclei fraction (SkMel30) | cleaved PARP positive nuclei fraction (SkMel5) | cleaved PARP positive nuclei fraction (UACC257) | cleaved PARP positive nuclei fraction (UACC62) | cleaved PARP positive nuclei fraction (WM115) | cleaved PARP positive nuclei fraction (WM1716) | cleaved PARP positive nuclei fraction (WM1745) | cleaved PARP positive nuclei fraction (WM3526) | cleaved PARP positive nuclei fraction (WM3619) | cleaved PARP positive nuclei fraction (WM451Lu)
1 | C[C@@H](N)c1ccc(C(=O)Nc2ccnc3[nH]ccc23)cc1 + O=C(O)C(=O)Nc1sc2c(c1C(=O)O)CCNC2 [TCS401] (first compound 0.4 µM, partner dose 1.66667 µM) | 147% | 110% | 76.7% | 74.8% | 366% | 117% | 134% | 81.1% | 108% | 180% | 48.7% | 54.4% | 112% | 76.1% | 93.2% | 41.8%
2 | NC(=O)c1ccc(N(C(N)=O)c2c(F)cccc2F)nc1-c1ccc(F)cc1F + C=CCn1c(=O)c2cnc(Nc3ccc(N4CCN(C)CC4)cc3)nc2n1-c1cccc(C(C)(C)O)n1 [MK1775] (first compound 0.4 µM, partner dose 0.02 µM) | 88.9% | 193% | 49.6% | 102% | 177% | 97.7% | 130% | 41.2% | 48.5% | 55.5% | 153% | 158% | 117% | 63.2% | 166% | 484%
3 | Cn1sc(=O)n(Cc2ccccc2)c1=O + CN(NC(=O)CC(=O)NN(C)C(=S)c1ccccc1)C(=S)c1ccccc1 [STA4783] (first compound 0.4 µM, partner dose 0.006 µM) | 226% | 110% | 50.6% | 59.3% | 165% | 34.7% | 140% | 89% | 144% | 440% | 157% | 180% | 291% | 67.4% | 143% | 267%
4 | COc1ccc(C2=N[C@@H](c3ccc(Cl)cc3)[C@@H](c3ccc(Cl)cc3)N2C(=O)N2CCNC(=O)C2)c(OC(C)C)c1 [Nutlin-3] + O=S(=O)(c1ccccc1)N(CC(F)(F)F)c1ccc(C(O)(C(F)(F)F)C(F)(F)F)cc1 [T0901317] (first compound 0.1 µM, partner dose 1.4 µM) | 105% | 80.1% | 244% | 40% | 188% | 33.6% | 116% | 179% | 62.5% | 264% | 184% | 280% | 118% | 265% | 122% | 73.5%
5 | COc1ccc(C2=N[C@@H](c3ccc(Cl)cc3)[C@@H](c3ccc(Cl)cc3)N2C(=O)N2CCNC(=O)C2)c(OC(C)C)c1 [Nutlin-3] + c1cc(-c2cnn3cc(-c4ccc(OCCN5CCCCC5)cc4)cnc23)ccn1 [Dorsomorphin] (first compound 0.1 µM, partner dose 0.4 µM) | 41.1% | 92.1% | 43.7% | 62.5% | 110% | 36.5% | 107% | 84.1% | 143% | 54.1% | 197% | 33.2% | 93.7% | 84% | 105% | 87.7%
6 | Cn1cnc2c(F)c(Nc3ccc(Br)cc3Cl)c(C(=O)NOCCO)cc21 [selumetinib] + COc1ccc2c(c1)CCC1C2CCC2(C)C(NCCCCCCN3C(=O)C=CC3=O)CCC12 [U73122] (first compound 0.015 µM, partner dose 0.4 µM) | 195% | 111% | 113% | 210% | 83% | 61.5% | 97.9% | 128% | 63.1% | 207% | 82.7% | 70.5% | 105% | 96.2% | 111% | 149%
7 | CC1(C)CCC(c2ccc(Cl)cc2)=C(CN2CCN(c3ccc(C(=O)NS(=O)(=O)c4ccc(N[C@H](CCN5CCOCC5)CSc5ccccc5)c(S(=O)(=O)C(F)(F)F)c4)cc3)CC2)C1 + CC1(C)NC(=O)N(c2ccc([N+](=O)[O-])c(C(F)(F)F)c2)C1=O [nilutamide] (first compound 0.4 µM, partner dose 1 µM) | 302% | 166% | 73.8% | 118% | 91.9% | 119% | 92.8% | 104% | 327% | 97.4% | 68.4% | 229% | 322% | 133% | 106% | 108%
8 | Cn1sc(=O)n(Cc2ccccc2)c1=O + COc1ccc(-c2ccc3c(N4CCOCC4)nc(N4C[C@@H](C)O[C@@H](C)C4)nc3n2)cc1CO [KU0063794] (first compound 0.4 µM, partner dose 0.02 µM) | 176% | 166% | 133% | 100% | 87.7% | 45% | 95.9% | 66% | 320% | 31% | 109% | 426% | 93.1% | 84.6% | 97.9% | 130%
9 | C[C@]1(O)C[C@@H](c2nc(-c3ccc4ccc(-c5ccccc5)nc4c3)c3c(N)nccn32)C1 + CN(C)S(=O)(=O)c1ccc2c(c1)/C(=C/c1cc3c([nH]1)CCCC3)C(=O)N2 [SU6656] (first compound 0.4 µM, partner dose 0.4 µM) | 226% | 168% | 118% | 201% | 47.4% | 33.9% | 99.8% | 123% | 90.2% | 156% | 276% | 55% | 155% | 151% | 95.5% | 194%
10 | NC(=O)c1ccc(N(C(N)=O)c2c(F)cccc2F)nc1-c1ccc(F)cc1F + O=C(Nc1cccc(Cl)c1)Nc1ncc(CCNc2ncnc3ccsc23)s1 [SNS314] (first compound 0.4 µM, partner dose 0.0008 µM) | 95% | 55.2% | 101% | 124% | 133% | 134% | 55.1% | 59.9% | 112% | 120% | 134% | 67.5% | 99.9% | 158% | 89.7% | 52.1%
11 | Cn1sc(=O)n(Cc2ccccc2)c1=O + CCc1ccc(CCOc2ccc(CC3SC(=O)NC3=O)cc2)nc1 [pioglitazone] (first compound 0.4 µM, partner dose 2 µM) | 30.4% | 44.6% | 50.8% | 46.9% | 118% | 125% | 253% | 75.3% | 71.7% | 84% | 53% | 101% | 103% | 157% | 108% | 164%
12 | Cn1sc(=O)n(Cc2ccccc2)c1=O + Cn1cc(/C=C2\C(=O)Nc3cccnc32)c2ccccc21 [GW441756] (first compound 0.4 µM, partner dose 0.4 µM) | 70.7% | 60.3% | 86.1% | 53.8% | 133% | 38.3% | 93.6% | 108% | 246% | 135% | 58.2% | 243% | 75.5% | 435% | 100% | 28%
13 | CC1(C)CCC(c2ccc(Cl)cc2)=C(CN2CCN(c3ccc(C(=O)NS(=O)(=O)c4ccc(N[C@H](CCN5CCOCC5)CSc5ccccc5)c(S(=O)(=O)C(F)(F)F)c4)cc3)CC2)C1 + COc1ccc(COc2ccc(Cc3cnc(N)nc3N)cc2OC)cc1 [GW2580] (first compound 0.4 µM, partner dose 1 µM) | 424% | 516% | 110% | 135% | 193% | 219% | 76.8% | 214% | 125% | 112% | 131% | 140% | 501% | 37.2% | 116% | 105%
14 | CC(=O)O[C@@]12CO[C@@H]1C[C@H](O)[C@@]1(C)C(=O)[C@H](O)C3=C(C)[C@@H](OC(=O)[C@H](O)[C@@H](NC(=O)OC(C)(C)C)c4ccccc4)C[C@@](O)([C@@H](OC(=O)c4ccccc4)[C@H]21)C3(C)C [Docetaxel] + COc1ccc(COc2ccc(Cc3cnc(N)nc3N)cc2OC)cc1 [GW2580] (first compound 0.0001 µM, partner dose 1 µM) | 905% | 589% | 164% | 128% | 242% | 605% | 292% | 511% | 1000% | 324% | 121% | 216% | 335% | 293% | 215% | 170%
15 | Cn1cnc2c(F)c(Nc3ccc(Br)cc3Cl)c(C(=O)NOCCO)cc21 [selumetinib] + Oc1cc(-c2nc(-c3ccccc3)[nH]c2-c2ccncc2)ccc1Cl [L779450] (first compound 0.015 µM, partner dose 0.2 µM) | 45% | 66.4% | 79.1% | 114% | 440% | 299% | 44.5% | 82.2% | 61.7% | 186% | 201% | 88.9% | 110% | 143% | 123% | 57.3%
16 | Cn1cnc2c(F)c(Nc3ccc(Br)cc3Cl)c(C(=O)NOCCO)cc21 [selumetinib] + Cc1cc(N2CCOCC2)cc2[nH]c(-c3c(NC[C@@H](O)c4cccc(Cl)c4)cc[nH]c3=O)nc12 [BMS536924] (first compound 0.015 µM, partner dose 0.2 µM) | 470% | 250% | 79.3% | 101% | 127% | 147% | 134% | 192% | 110% | 69.6% | 172% | 89.2% | 118% | 80.3% | 293% | 49.9%
17 | Cn1sc(=O)n(Cc2ccccc2)c1=O + N#Cc1c(O)c2c(-c3ccc(-c4ccccc4O)cc3)csc2[nH]c1=O [A769662] (first compound 0.4 µM, partner dose 2 µM) | 142% | 82.4% | 128% | 76.8% | 94% | 167% | 52.1% | 155% | 326% | 137% | 88% | 127% | 87.2% | 40.3% | 94.7% | 61.3%
18 | CN(c1ncccc1CNc1nc(Nc2ccc3c(c2)CC(=O)N3)ncc1C(F)(F)F)S(C)(=O)=O + CN(NC(=O)CC(=O)NN(C)C(=S)c1ccccc1)C(=S)c1ccccc1 [STA4783] (first compound 0.08 µM, partner dose 0.006 µM) | 100% | 99.6% | 109% | 75.1% | 256% | 75.9% | 64.5% | 695% | 74.3% | 234% | 65.7% | 168% | 164% | 55.9% | 104% | 129%

Nothing new here: entries from further up.
Row | Compound | cleaved PARP positive nuclei fraction (MZ2-MEL) | cleaved PARP positive nuclei fraction (MeWo) | cleaved PARP positive nuclei fraction (RPMI7951) | cleaved PARP positive nuclei fraction (RVH-421) | cleaved PARP positive nuclei fraction (SkMel28) | cleaved PARP positive nuclei fraction (SkMel2) | cleaved PARP positive nuclei fraction (SkMel30) | cleaved PARP positive nuclei fraction (SkMel5) | cleaved PARP positive nuclei fraction (UACC257) | cleaved PARP positive nuclei fraction (UACC62) | cleaved PARP positive nuclei fraction (WM115) | cleaved PARP positive nuclei fraction (WM1716) | cleaved PARP positive nuclei fraction (WM1745) | cleaved PARP positive nuclei fraction (WM3526) | cleaved PARP positive nuclei fraction (WM3619) | cleaved PARP positive nuclei fraction (WM451Lu)
4 | COc1ccc(C2=N[C@@H](c3ccc(Cl)cc3)[C@@H](c3ccc(Cl)cc3)N2C(=O)N2CCNC(=O)C2)c(OC(C)C)c1 [Nutlin-3] + O=S(=O)(c1ccccc1)N(CC(F)(F)F)c1ccc(C(O)(C(F)(F)F)C(F)(F)F)cc1 [T0901317] (first compound 0.1 µM, partner dose 1.4 µM) | 105% | 80.1% | 244% | 40% | 188% | 33.6% | 116% | 179% | 62.5% | 264% | 184% | 280% | 118% | 265% | 122% | 73.5%
5 | COc1ccc(C2=N[C@@H](c3ccc(Cl)cc3)[C@@H](c3ccc(Cl)cc3)N2C(=O)N2CCNC(=O)C2)c(OC(C)C)c1 [Nutlin-3] + c1cc(-c2cnn3cc(-c4ccc(OCCN5CCCCC5)cc4)cnc23)ccn1 [Dorsomorphin] (first compound 0.1 µM, partner dose 0.4 µM) | 41.1% | 92.1% | 43.7% | 62.5% | 110% | 36.5% | 107% | 84.1% | 143% | 54.1% | 197% | 33.2% | 93.7% | 84% | 105% | 87.7%
6 | Cn1cnc2c(F)c(Nc3ccc(Br)cc3Cl)c(C(=O)NOCCO)cc21 [selumetinib] + COc1ccc2c(c1)CCC1C2CCC2(C)C(NCCCCCCN3C(=O)C=CC3=O)CCC12 [U73122] (first compound 0.015 µM, partner dose 0.4 µM) | 195% | 111% | 113% | 210% | 83% | 61.5% | 97.9% | 128% | 63.1% | 207% | 82.7% | 70.5% | 105% | 96.2% | 111% | 149%
7 | CC1(C)CCC(c2ccc(Cl)cc2)=C(CN2CCN(c3ccc(C(=O)NS(=O)(=O)c4ccc(N[C@H](CCN5CCOCC5)CSc5ccccc5)c(S(=O)(=O)C(F)(F)F)c4)cc3)CC2)C1 + CC1(C)NC(=O)N(c2ccc([N+](=O)[O-])c(C(F)(F)F)c2)C1=O [nilutamide] (first compound 0.4 µM, partner dose 1 µM) | 302% | 166% | 73.8% | 118% | 91.9% | 119% | 92.8% | 104% | 327% | 97.4% | 68.4% | 229% | 322% | 133% | 106% | 108%
